Laboratory results from PMC10877727.
The exact form of at least one protein or probe is not confirmed. Weaker means in comparison with the reference protein, sequence or condition of that experiment. At least one verdict rests on a figure or table, not on a statement of the authors.

Molecular target: TraN (Enterococcus faecalis plasmid pIP501) (UniProt Q7BVV5)
Experiment: MST
Details: Kd in low micromolar range, value only in Figure 4B; MST in PBS-T (pH and temperature not stated); 50 nM RED-tris-NTA labelled His-protein, dsDNA 0.781 nM to 12.8 uM; Monolith NT.115, 60% LED and MST power; recombinant protein; residues 1-122; protein details: N-terminal 7xHis (pQTEV)

AGGGCGCACTTATACGCAGTAACTTCGTTACTTC (double strand) [random DNA 34-mer]
binding result: binds more weakly
